Reference: PubChem BioAssay AID1307 (SRMLSC, 2008)
Out of some 1,200 compounds screened, fewer than 10 were called active.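 How the source made its calls: active means inhibition reaching a set limit at one or more tested concentrations; inactive means inhibition under that limit at every dose.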 Some of the results follow. Potency and affinity values are given separately.

Test: RAM pathway signaling blockade in S. cerevisiae – dose response (AID 1307);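 further: 0% = DMSO vehicle wells and 100% = 10 µM 1-NA-PP1 control; higher inhibition means more yeast growth since RAM block rescues cells from 5-FOA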
Conditions: S. cerevisiae RAM network URA3 reporter, 5-FOA growth OD615, hits give high values, yeast express analog-sensitive mutant Cbk1 kinase; at 100 µM unless noted

Max inhibition, inactive:
Cc1ccc(/C=C2/Sc3ccccc3N(CC(=O)NCCCOC(C)C)C2=O)cc1 8.03%, COc1cc(NC(=O)CSCc2cnn(-c3ccccc3)c2-n2cccc2)cc(OC)c1 2.62% [at 0.196 µM], Cc1ccc(S(=O)(=O)N(CCCO)CC(O)CON=C2c3ccccc3-c3ccccc32)cc1 (centres undefined) 3.7%, Cc1cc(C)cc(NC(=S)NCCSc2ccc(Cl)cc2)c1 2.24%, O=C(CSc1nnc(-c2ccc(Cl)s2)o1)N1CCCc2ccccc21 2.39% [at 6.25 µM], CCOc1cccc(-c2csc(C3COc4ccccc4O3)n2)c1 (centres undefined) 5.04% [at 50 µM], COCCNC(=O)c1c(N)n(-c2ccccc2)c2nc3ccccc3nc12 11.3%, COc1ccc(OC)c(/C=C/C(=O)c2ccc(Cl)cc2)c1 4.87% [at 50 µM], CC(=O)c1cc(C(=O)c2ccccc2)sc1Nc1ccccc1 6.93%, COc1ccc(C(=O)Nc2cc(OC)c(Cl)cc2OC)cc1 3.65%, CCCCCOc1ccc(NC(=O)c2cc(SC)ccc2Cl)cc1 6.24%, O=C(CCCSc1ccccc1)Nc1nc(-c2ccco2)c(-c2ccco2)s1 3.63%, O=C(COC(=O)c1cc(-c2ccc(Cl)s2)nc2ccccc12)NCc1ccco1 4.67% [at 6.25 µM], CCn1c(=NC(=O)c2cccc(N3C(=O)CCC3=O)c2)sc2c(OC)ccc(OC)c21 4.47%, C=C(CC1([C@@H](NP(=O)(c2ccccc2)c2ccccc2)[C@H]2C[C@@H]2CCCC)CC1)c1ccccc1 6.93%, COc1cccc(/C=C(/C(=O)OCC(=O)NC2CCCC(C)C2C)c2ccccc2)c1 (centres undefined) 7.65% [at 50 µM], O=C(Nc1nc2ccccc2n1CCN1CCOCC1)c1cn(-c2ccccc2)nc1-c1ccccc1 8.35%, C=CCN(CC=C)S(=O)(=O)c1ccc(NC(=S)NC(=O)Cc2ccc(OC)cc2)cc1 3.47% [at 25 µM], CCCCOc1cccc(C(=O)NC(=S)Nc2cccc(C(F)(F)F)c2)c1 4.25%, CCCCNC(=S)N(C)/N=C/c1ccc(OCC(=O)Nc2ccc(OC)cc2)c(OC)c1 4.25%, O=C(COC(=O)c1ccc2c(=O)n3c(nc2c1)CCC3)Nc1ccc(OC(F)F)cc1 4.22%, Cn1c(=O)cc(OCCCC(=O)NCc2ccc(F)cc2Cl)c2ccccc21 5.53%, Cc1ccc(NC2=Nc3ccccc3N3C2=Nc2c(c(C)nn2-c2ccccc2)C3c2ccc(O)c(O)c2)cc1 (centres undefined) 6.97%, Cc1ccc(OCc2nnc(SCC(=O)Nc3ccc4c(c3)OCCO4)n2Cc2ccco2)cc1 0.12% [at 0.782 µM], COc1ccc(CSCC(=O)Nc2ccc(S(=O)(=O)N3CCCCCC3)cc2)cc1 0.61% [at 0.196 µM], CCOc1nc(-c2ccccc2)ccc1-c1noc(COc2ccccc2)n1 3.61% [at 50 µM], N#CCc1ccc(NS(=O)(=O)c2ccc(C3CCCCC3)cc2)cc1 5.22% [at 25 µM], CCCSc1nc(NCc2ccco2)c2c3c(sc2n1)COC(C)(CC)C3 (centres undefined) 3.66%, COc1cc(/C=C/C(=O)c2ccc(C)cc2)ccc1OCC#N 3.89% [at 50 µM], COc1ccc(/C=C/C(=O)c2ccc(OC)cc2OC)c(OC)c1 5.33% [at 1.563 µM], O=C(c1cccs1)n1nc(-c2ccc(Cl)cc2)nc1NCc1ccco1 2.48%, O=C(O)CCN1C(=O)/C(=C/c2cn(-c3ccccc3)nc2-c2cccs2)SC1=S 5.53%, CC(/C=C1\SC(=S)N(C(C(=O)O)C(C)C)C1=O)=C\c1ccccc1 (centres undefined) 4.71%, CCOC(=O)c1c(C)[nH]c(N=Nc2cccc(C)c2)c1C 5.31%, COC(=O)c1cc(=O)n(Cc2ccc(F)cc2)c(=NCc2ccc(F)cc2)s1 4.01%, C=CCc1ccccc1OCC(=O)N/N=C/c1ccccc1OCC 2.28% [at 0.196 µM], CCOC(=O)c1sc(NC(=O)CSc2nnc(-c3ccc(OC)cc3)n2CCOC)nc1C 1.33% [at 0.782 µM], CC(C)CCN(N=O)[C@@H](Cc1ccccc1)CN(N=O)[C@@H](Cc1ccccc1)CN(C)N=O 5.05% [at 50 µM], Cc1cc2ccccc2n1CCNC(=O)COc1ccc2ccccc2c1 4.59%, CCCCc1ccc(-c2csc(/C(C#N)=C\c3ccc(C)o3)n2)cc1 5.43%, CCN(Cc1ccccc1)c1ccc(/C=N/NS(=O)(=O)c2cccc([N+](=O)[O-])c2)cc1 4.04% [at 25 µM], O=C(Nc1ccc(-c2nc3ccccc3s2)cc1)c1cc(-n2cnnc2)ccc1Cl 14.8%, COc1ccccc1C1(CCNS(=O)(=O)c2ccc(C)cc2)CCOC(C(C)C)C1 (centres undefined) 5.47% [at 50 µM], O=C(/C=C/c1ccc(Cl)cc1Cl)NCCSCc1ccccc1 1.44% [at 50 µM], Cc1ccc(S(=O)(=O)N2CCC(C)CC2)cc1[N+](=O)[O-] 0.92% [at 1.563 µM], CCCN(CCC)C(=O)c1ccc2c(=O)n(Cc3ccco3)c(=S)[nH]c2c1 3.63%, Cc1ccc(SCCNC(=O)c2ccc(C)c(S(=O)(=O)Nc3ccccc3C)c2)cc1 4.38% [at 50 µM], O=[N+]([O-])c1ccc(C2CCCC/C2=N/OCc2ccc(F)cc2)c([N+](=O)[O-])c1 (centres undefined) 4.01% [at 0.196 µM], O=C(CSCc1nc2c(nnn2Cc2ccc(F)cc2)c(=O)[nH]1)Nc1cccc(C(F)(F)F)c1 2.69% [at 0.782 µM], O=C(CSc1nnc(-c2ccncc2)n1-c1ccccc1Cl)Nc1ccc(C(=O)O)cc1 5.43%, CC(C)C[C@H](NC(=O)c1[nH]cnc1C(=O)N[C@H](C)c1ccccc1)C(=O)OCc1ccccc1 6.21%, O=C(CCOc1ccccc1)Nc1cccc(S(=O)(=O)Nc2ccccc2Cl)c1 2.77% [at 12.5 µM], Brc1ccc(Cn2c(-c3ccc(Br)o3)nc3ccccc32)o1 3.76% [at 3.125 µM], Cc1ccc(NC(=O)COC(=O)COc2ccc(Cl)cc2C)c([N+](=O)[O-])c1 3.12%, O=C(O)c1cc(N2N=C(C(F)(F)F)/C(=C/C=C/c3ccco3)C2=O)ccc1Cl 12.9%, COc1cccc(CSc2nc3cc4c(cc3cc2C)OCCO4)c1 4.23% [at 0.391 µM], Cc1ccc(S(=O)(=O)N(CC(=O)Nc2ccccc2C(=O)O)c2cccc(Cl)c2C)cc1 3.29%, CN(C)c1nc(SCCOC(=O)COc2ccc(Cl)cc2Cl)nc(N(C)C)n1 1.44% [at 0.782 µM], O=C(Nc1cccnc1Cl)c1ccc2c(Cl)c3c(nc2c1)CCC3 5.53%, Cc1ccc(/C=N/NC(=O)CCCOc2ccc(Cl)cc2Cl)cc1 2.59%, CCOc1ccc(-n2c(C)nc(O)c2N=Nc2ccccc2)cc1 3.78%, O=C(COC(=O)CCCNC(=O)c1ccc(Cl)cc1)Nc1cc(Cl)ccc1Cl 3.65%, O=C(CSCc1ccccc1)Nc1cccc(C(=O)Nc2ccccc2C(=O)O)c1 1.19% [at 3.125 µM], CCOCCCNC(=O)c1cc(=O)n(Cc2cccc(C)c2)c2ccccc12 3.72% [at 3.125 µM], N#CC(C#N)=C(Nc1ccc(F)cc1)SCc1cccc(Br)c1 0.58% [at 25 µM], COc1ccc(COc2ccsc2C(=O)Nc2ccc(Cl)c(Cl)c2)cc1 2.5% [at 6.25 µM], O=C(CCCn1c(SCc2cccc(F)c2)nc2ccccc2c1=O)NCC1CCCO1 (centres undefined) 4.98% [at 50 µM], Cc1ccc(C(=O)Nc2ccc(C(=O)O)cc2)cc1S(=O)(=O)NCc1ccccc1 4.27%, O=C(COC(=O)c1cc(Cl)ccc1[N+](=O)[O-])NCc1ccc(Cl)cc1Cl 4.62% [at 1.563 µM], COC(=O)C(Sc1nc(C)cc(C)c1C#N)c1ccccc1 (centres undefined) 2.46% [at 0.782 µM], O=C(/C=C/c1ccc(N2CCCCC2)c([N+](=O)[O-])c1)c1ccc(S(=O)(=O)N2CCCC2)cc1 4.39%, O=C(CSc1nc(-c2ccco2)cc(C(F)(F)F)n1)NCCc1ccccc1 2.41% [at 12.5 µM], Cc1ccc(C(=O)NCCSCc2ccc(Cl)cc2Cl)cc1[N+](=O)[O-] 2.08% [at 0.782 µM], CCN(Cc1ccccc1)c1ccc(/C=C(\C#N)c2ccccn2)cc1 7.2%, N#Cc1c(C(F)(F)F)cc(C2CC2)nc1N1CCCC1 3.33% [at 3.125 µM], CCOc1ccc(CNC(=O)CCc2cn(Cc3ccccc3)c3ccccc23)cc1 5.78% [at 50 µM], O=C(O)c1cc(Sc2ccc(Br)cc2)nc2ccccc12 4.44% [at 50 µM], Cc1cc(C)nc(N2N=C(CSc3ccc(Cl)cc3)CC2=O)n1 1.21% [at 12.5 µM], CC(=O)c1ccc(N(C(=O)CS(=O)CC(=O)Nc2ccc(F)cc2)C(C(=O)NC2CCCCC2)c2cccs2)cc1 (centres undefined) 3.56% [at 3.125 µM]
